This note sets out measurements from patent US20080200387A1.

The chains behind the UniProt entries cited, without tags or fusion partners. Where a name states a change or a piece, a line headed by the entry shows the natural chain unless it says otherwise.
UniProt P80746: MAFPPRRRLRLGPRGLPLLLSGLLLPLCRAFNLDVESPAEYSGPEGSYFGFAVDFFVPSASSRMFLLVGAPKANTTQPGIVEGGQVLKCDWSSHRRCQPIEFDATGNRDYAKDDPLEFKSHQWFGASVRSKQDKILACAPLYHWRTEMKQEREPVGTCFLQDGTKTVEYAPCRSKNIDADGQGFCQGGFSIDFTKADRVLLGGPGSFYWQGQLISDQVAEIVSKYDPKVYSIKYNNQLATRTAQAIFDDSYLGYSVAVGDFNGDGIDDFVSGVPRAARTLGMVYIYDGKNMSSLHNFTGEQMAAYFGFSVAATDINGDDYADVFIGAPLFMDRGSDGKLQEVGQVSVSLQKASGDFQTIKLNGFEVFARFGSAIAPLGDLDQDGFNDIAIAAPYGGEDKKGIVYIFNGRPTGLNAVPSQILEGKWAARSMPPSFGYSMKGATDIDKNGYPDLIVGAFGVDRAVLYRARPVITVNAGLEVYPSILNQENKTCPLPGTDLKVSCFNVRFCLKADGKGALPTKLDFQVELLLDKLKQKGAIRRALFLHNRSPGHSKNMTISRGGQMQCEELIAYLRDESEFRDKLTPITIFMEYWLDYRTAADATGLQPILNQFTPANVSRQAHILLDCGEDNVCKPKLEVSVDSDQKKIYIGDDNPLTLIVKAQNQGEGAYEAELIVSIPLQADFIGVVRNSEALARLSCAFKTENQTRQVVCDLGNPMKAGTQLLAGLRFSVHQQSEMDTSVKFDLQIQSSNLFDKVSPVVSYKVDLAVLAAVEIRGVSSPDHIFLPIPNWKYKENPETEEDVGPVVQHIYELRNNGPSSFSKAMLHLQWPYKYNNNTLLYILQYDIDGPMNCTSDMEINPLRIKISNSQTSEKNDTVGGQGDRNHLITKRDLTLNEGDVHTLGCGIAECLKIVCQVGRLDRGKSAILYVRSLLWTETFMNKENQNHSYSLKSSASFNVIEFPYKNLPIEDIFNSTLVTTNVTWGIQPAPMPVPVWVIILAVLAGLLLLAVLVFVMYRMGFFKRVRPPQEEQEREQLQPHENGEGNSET
UniProt P00747: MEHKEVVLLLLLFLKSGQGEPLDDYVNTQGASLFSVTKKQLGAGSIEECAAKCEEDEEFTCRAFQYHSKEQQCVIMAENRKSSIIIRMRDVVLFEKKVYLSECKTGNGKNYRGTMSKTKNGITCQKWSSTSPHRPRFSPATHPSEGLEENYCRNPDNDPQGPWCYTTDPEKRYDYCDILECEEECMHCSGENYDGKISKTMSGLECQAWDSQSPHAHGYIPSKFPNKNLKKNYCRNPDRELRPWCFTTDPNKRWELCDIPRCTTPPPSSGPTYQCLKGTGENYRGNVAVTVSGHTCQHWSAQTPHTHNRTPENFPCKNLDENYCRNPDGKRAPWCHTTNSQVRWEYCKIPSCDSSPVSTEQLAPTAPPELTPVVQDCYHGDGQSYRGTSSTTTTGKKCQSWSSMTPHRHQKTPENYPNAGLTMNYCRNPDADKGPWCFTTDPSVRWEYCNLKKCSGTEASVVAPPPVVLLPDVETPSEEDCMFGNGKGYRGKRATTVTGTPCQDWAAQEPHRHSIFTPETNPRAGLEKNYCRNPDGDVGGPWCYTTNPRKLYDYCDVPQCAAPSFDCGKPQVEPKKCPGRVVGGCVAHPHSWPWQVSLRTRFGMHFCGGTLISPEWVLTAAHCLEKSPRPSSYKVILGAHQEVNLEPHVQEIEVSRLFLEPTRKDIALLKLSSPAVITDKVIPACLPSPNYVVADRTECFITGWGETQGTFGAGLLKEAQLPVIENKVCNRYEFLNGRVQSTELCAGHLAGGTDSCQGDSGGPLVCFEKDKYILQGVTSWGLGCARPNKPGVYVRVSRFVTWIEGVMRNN

No constants are given. Whether binding was seen depends on the method and setting. Some entries that bind do so weakly or less than the wild type.

In the test the target is integrin αvβ3 on bovine aortic endothelial cells (BAECs) (bovine) (UniProt P80746+A0AAA9TU76). Put plainly: ELISA of biotin-labelled kringle protein on BAECs.

As for “K1-5N289A/T346A/L532R (from UniProt P00747 97-562) (ligand)”, the binding entry is on record as “binds”.
